Patent publication US20190389914A1
No constants are given. Whether binding was seen depends on the method and setting. Some entries that bind do so weakly or less than the wild type.

Amino acid sequences for entries named in this document (tags omitted). A change or cut given only in a name is not applied to a line headed by its entry.
UniProt Q9CAJ0: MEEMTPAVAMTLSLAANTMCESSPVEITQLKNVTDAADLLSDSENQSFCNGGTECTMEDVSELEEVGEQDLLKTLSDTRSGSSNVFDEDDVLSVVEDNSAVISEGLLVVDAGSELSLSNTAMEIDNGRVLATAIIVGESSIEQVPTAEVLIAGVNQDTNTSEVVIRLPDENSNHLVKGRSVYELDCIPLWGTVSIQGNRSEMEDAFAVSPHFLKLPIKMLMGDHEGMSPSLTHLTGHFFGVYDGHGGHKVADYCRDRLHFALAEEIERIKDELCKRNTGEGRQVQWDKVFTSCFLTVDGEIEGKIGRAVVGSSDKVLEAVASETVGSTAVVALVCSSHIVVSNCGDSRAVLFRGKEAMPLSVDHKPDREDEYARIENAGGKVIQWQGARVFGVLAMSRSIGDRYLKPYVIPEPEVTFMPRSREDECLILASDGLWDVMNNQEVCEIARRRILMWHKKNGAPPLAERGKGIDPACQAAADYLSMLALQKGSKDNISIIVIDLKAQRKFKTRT
UniProt O49686: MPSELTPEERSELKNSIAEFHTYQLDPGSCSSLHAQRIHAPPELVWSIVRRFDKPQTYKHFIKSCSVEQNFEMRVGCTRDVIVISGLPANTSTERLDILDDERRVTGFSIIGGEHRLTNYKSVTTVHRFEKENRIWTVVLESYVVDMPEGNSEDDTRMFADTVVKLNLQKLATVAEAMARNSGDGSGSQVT

Biological target: GAL4 activation domain fusion to HAB1^!-2 (pACT-HAB1^!-2; HAB1^V393R/R505A) (Arabidopsis thaliana (Mouse-ear cress)) (UniProt Q9CAJ0)
Test: Y2H, mandipropamid (FIG. 3)

In the case of “GAL4 DNA binding domain fusion to PYR1^!-MANDI (PYR1^Y58H;K59R;V81I;F108A;S122G;F159L;T162D) (from UniProt O49686 1-191) (receptor)”, the binding is reported as “binds”.
